From PubChem BioAssay AID493014 (National Center for Advancing Translational Sciences (NCATS), 2011)
The campaign covered roughly 340,000 compounds. About 170 (0.05%) were called active. Inconclusive means that the source gave no clear call. Such entries were picked first, then a sample of the others. Calls come from the whole dose curve; as a rule, active = well fitted inhibition curve with a large enough effect in the signal ratio, with a control signal flat (not every such curve was filed as active); inconclusive = small, poorly fitted or top-dose-only effect, or effect the other way, or a change in a side signal; inactive = flat fitted curve, though single readings scatter; the % refers to the signal ratio. Potencies beside an inconclusive call are fits to weak or partial responses and may not hold up.

Test: qHTS Assay to Find Inhibitors of Chronic Active B-Cell Receptor Signaling;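 for activity change, negative = inhibition: plate controls were basal doxycycline-induced cells for no effect and cells given 10 µM MG132 for full effect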
Conditions: ABC-DLBCL IkBa-CBG/CBR reporter, luminescence ratio (green luciferase fused to IkBa over red control in TMD8 lymphoma cells), 4 h; activity change, negative = inhibition: at 46.1 µM (top of the series) unless noted
How it was run: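 TMD8 ABC-DLBCL cells carrying doxycycline-inducible green luciferase fused to IkappaBalpha plus unfused red luciferase were exposed to compounds (up to 46 uM) for 4 hrs at 37C. Activity came from the overlap-corrected green/red luminescence ratio.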
Potency is the fitted concentration of half-maximal effect.

Structure (SMILES)	activity change, negative = inhibition	Potency
Cc1ccccc1N(CC(=O)Nc1ccc(F)cc1)S(C)(=O)=O	inconclusive: -12.7%	
O=C(Cc1ccc(Cl)cc1)NCC(=O)N1CCCCCC1	inactive: 5.65%	
O=C1c2ccc(-c3ccc(F)cc3OCc3ccccc3)cc2S(=O)(=O)c2cccc(C(=O)N3CCN(c4ncc(Br)cn4)CC3)c21	inconclusive: 2%	
CC(C)(C)c1ccc2c(c1)OC(C(=O)N/N=C\c1ccc[nH]1)CO2 (stereo not given)		inconclusive: 35.5 µM [falling, single point]
O=C(CN1C(=O)c2ccccc2S1(=O)=O)N1CCN(c2ccccc2F)CC1	inactive: 0.512%	
COc1cccc(-c2noc(C3CCCN(C(=O)c4ccccc4OC)C3)n2)c1 (stereo not given)		inconclusive: 22.4 µM [falling, single point]
Cc1cc(/C=N/NC(=O)c2cccc(N(C)C)c2)c(C)n1-c1cc(C(=O)O)cc(C(=O)O)c1		inconclusive: 10 µM [falling, partial curve, poor fit]
O=C(NCCCO)c1ccc2[nH]c3c(c2c1)CCCC3		inconclusive: 3.66 µM [rising, full curve]
COc1ccc2cc(C(=O)C3CCCN(Cc4cnc(N5CCOCC5)s4)C3)ccc2c1 (stereo not given)		inconclusive: 11.2 µM [falling, partial curve, poor fit]
CC1CCN(CCCNC(=O)c2cc3c(Cl)nc4ccccc4c3s2)CC1	inconclusive: 0.926%	
O=C1N=C(N2CCc3ccccc3C2)S/C1=C\c1ccc(O)cc1	inconclusive: -14.6%	
CCN(CC)N=Nc1ccc(C(=O)O)cc1		inconclusive: 16.4 µM [falling, single point]
CCOC(=O)c1ccn(CSc2c(F)c(F)cc(F)c2F)n1	inactive: -1.31%	
CCn1cc(/C=N\NC(=O)c2ccc(F)cc2)cn1	inconclusive: -1.58%	
Cn1cc([N+](=O)[O-])c(C(=O)Nc2cc(Oc3cccnc3)cc([N+](=O)[O-])c2)n1		inconclusive: 3.55 µM [falling, full curve]
Cc1nn(-c2cc(N3CCNCC3)ccc2[N+](=O)[O-])c(=O)c2ccccc12	inactive: 3.17%	
CCC(=O)NC(=S)Nc1cccc(NC(=O)c2ccccc2Cl)c1	inconclusive: -14.7%	
COc1ccccc1NC(=O)N1CCN(CCc2ccccc2)CC1	inconclusive: 6.64%	
CN(Cc1nc2c(s1)CCCC2)C(=O)CCc1nnc(-c2ccccc2)o1	inconclusive: 2.43%	
COc1ccc2[nH]cc(CCNS(=O)(=O)c3ccccc3)c2c1	inconclusive: 11.8%	
CCOC(=O)/C=C/c1ccc2oc3ccccc3c(=O)c2c1		inconclusive: 0.447 µM [rising, full curve, poor fit]
Cc1ccc(S(=O)(=O)N2CCC(C(=O)N3CCC3)CC2)cc1	inconclusive: 4.32%	
COc1cccc(Nc2nc(Nc3ccc(Cl)c(C(=O)O)c3)nc(C)c2[N+](=O)[O-])c1	inconclusive: 13.2%	
CCn1c(=O)cc(OCC(=O)NCc2ccco2)c2ccccc21	inconclusive: -0.791%	
COc1ccc(CN2CCOCCOCCN(Cc3ccc(OC)cc3)CCOCCOCC2)cc1		inconclusive: 14.1 µM [falling, single point]
Cc1ccccc1Nc1nc(N)nc(COC(=O)c2ccccc2)n1	inconclusive: -6.75%	
Cc1ccc(C(=O)NCC(=O)OCC(=O)Nc2ccccc2C#N)s1	inconclusive: 8.44%	

Structure (SMILES)	activity change, negative = inhibition	Potency
O=C(COC(=O)c1ccc([N+](=O)[O-])o1)NCc1ccccc1	inactive: 2.11%	
N/C(=N\OC(=O)c1cccc(Cl)c1)c1ccccn1		inconclusive: 4.11 µM [falling, single point]
Cc1cc(C)cc(NC(=O)c2sc3nc(C)cc(C)c3c2N)c1	inconclusive: 0.109%	
CC(=O)c1ccc(N2CCN(S(=O)(=O)c3cc4c(cc3C)NC(=O)CO4)CC2)cc1	inconclusive: -6.96%	
O=C(/C=C(\O)c1ccccc1)C(=O)NNC(=O)c1ccccc1[N+](=O)[O-]		inconclusive: 8.91 µM [falling, partial curve]
OCCCCc1nccc2c1[nH]c1ccccc12	inconclusive: -11.6%	
Cc1nn(-c2cccc(Cl)c2)c2c1C(c1ccncc1)C(C#N)=C(N)O2 (stereo not given)	inconclusive: 23.1%	
CCC(CC)C(=O)N1CCN(Cc2ccc3c(c2)OCO3)CC1		inconclusive: 29.1 µM [rising, single point]
COc1ccccc1CNC(=O)c1ccc2nc3[nH]c4ccccc4c3nc2c1		inconclusive: 5.17 µM [rising, partial curve, poor fit]
COc1ccccc1CNC(=O)c1cc2ccccc2o1		inconclusive: 0.355 µM [falling, full curve, poor fit]
COc1cc2cc(C(=O)N3CCC(Cc4ccccc4)CC3)[nH]c2cc1OC	inconclusive: -0.388%	
CC(C)NC(=S)N/N=C/c1cccnc1	inconclusive: 241%	
c1ccc(-c2cc(-c3ccc(N4CCOCC4)cc3)nc3ccccc23)cc1	inconclusive: 4.1%	
CCOc1ccc(NC(=S)Nc2cc(OC)c(Cl)cc2OC)cc1	inactive: -2.04%	
c1cc(CNc2ccc3c(c2)OCCO3)ccn1	inactive: 3.86%	
CCOc1ccc(NC(=O)Nc2cc(C)ccc2F)cc1		inconclusive: 0.411 µM [falling, full curve, poor fit]
Cc1ccc(OCCNC(=O)c2cncc(Br)c2)cc1C	inconclusive: 9.88%	
Cc1ccc2c(c1)c1ncnc(N3CCN(c4ccccc4)CC3)c1n2C	inactive: -1.18%	
N#Cc1ccncc1Sc1ccc(Cl)cc1	inconclusive: -0.24%	
COc1ccc(NC(=O)CSC2=Nc3ccccc3C3=NC(CCC(=O)NCCc4ccccc4)C(=O)N23)c(OC)c1 (stereo not given)	inactive: 8.14%	
COc1ccc(NC(=O)Nc2ccc(F)cc2F)cc1		inconclusive: 17.8 µM [falling, partial curve]
O=C(NCc1cccc2ccccc12)c1cccs1	inconclusive: -3.88%	
CC(C)(C)c1ccc(C(=O)N2CCN(CCNC(=O)C(=O)NCc3ccc(Cl)cc3)CC2)cc1	inactive: -1.96%	
Cc1ccc(C(=O)NCCc2ccccc2)cc1S(=O)(=O)N1CCOCC1	inconclusive: 8.11%	
CCOC(=O)c1c(-c2ccc(C)cc2)csc1NC(=O)CCSc1nnc2ccccn12		inconclusive: 25.9 µM [falling, partial curve, poor fit]
CCOC(=O)c1ccc(-c2c(C)cc3oc(=O)cc(-c4ccccc4)c3c2C)cc1	inconclusive: 0.803%	
COc1cc(OC)c2c(-c3cccc(-c4cccc(N)c4)c3)cc(=O)oc2c1		inconclusive: 18.4 µM [falling, partial curve]

Complete entries from above:
`CC(=O)c1ccc(N2CCN(S(=O)(=O)c3cc4c(cc3C)NC(=O)CO4)CC2)cc1` reads activity change, negative = inhibition: inconclusive: -6.96%
`CCC(CC)C(=O)N1CCN(Cc2ccc3c(c2)OCO3)CC1` reads Potency: inconclusive: 29.1 µM [rising, single point]
`COc1ccccc1CNC(=O)c1ccc2nc3[nH]c4ccccc4c3nc2c1` reads Potency: inconclusive: 5.17 µM [rising, partial curve, poor fit]
`Cc1ccc(C(=O)NCC(=O)OCC(=O)Nc2ccccc2C#N)s1` reads activity change, negative = inhibition: inconclusive: 8.44%

(further entries)

Structure (SMILES)	activity change, negative = inhibition	Potency
COc1ccc(NC(=O)C(=O)NCC(c2ccco2)N2CCc3ccccc32)cc1 (stereo not given)	inconclusive: -6.73%	
CCOC(=O)c1nnn(-c2nonc2N)c1COc1ccccc1	inactive: -2.73%	
CCC1CCCCN1CCCNC(=O)c1ccc2nc(N3CCC(C)CC3)sc2c1 (stereo not given)		inconclusive: 0.501 µM [falling, full curve, poor fit]
CCC1=C(OC(=O)N(CC)CC)N2C(=O)OC(=NCC(=O)OC)[C@]2(Cc2ccccc2)[C@H]2C1=CC[C@H]1C(=O)N(c3ccccc3)C(=O)[C@H]12	inconclusive: -2.58%	
CCOC(=O)c1c(NS(=O)(=O)Cc2ccccc2)sc2c1CCCC2	inconclusive: 19.2%	
CCCCC(=O)Nc1ccccc1C(C)C	inconclusive: 6.93%	
CCOC(=O)c1c(NC(=O)Cn2nnc3ccccc32)sc2c1CCC(C)C2 (stereo not given)	inconclusive: 3.56%	
COc1cccc(-c2cc(C(=O)Nc3nc4ccccc4s3)c3ccccc3n2)c1	inactive: 18.6%	
O=C(NC(=O)C(F)(F)F)Nc1ccc(S(=O)(=O)Nc2nccs2)cc1	inactive: 5.7%	
CC(C)CN(C(=O)c1cccs1)C1CCS(=O)(=O)C1 (stereo not given)	inactive: -2.27%	
O=C(Cc1cccs1)Nc1ccccc1NC(=O)Cc1cccs1	inconclusive: 9.53%	
O=C(c1ccc(S(=O)(=O)Cc2cc(F)ccc2F)c([N+](=O)[O-])c1)N1CCCCC1	inconclusive: 24%	
COc1ccc(C(=O)C2CCCN(C(=O)CSC)C2)cc1OC (stereo not given)	inactive: 0.0578%	
CCOC(=O)c1nn(-c2ccc3ccccc3c2)cc1O	inconclusive: -17.9%	
O=C(Nc1ccc(N2CCCCC2)c(Cl)c1)c1ccc2c(c1)OCCO2		inconclusive: 14.6 µM [rising, single point]
O=C(Nc1scc(-c2ccccc2)c1C(=O)O)c1ccco1		inconclusive: 25.9 µM [falling, single point]
CNS(=O)(=O)c1cccc(C(=O)OCC(=O)N2c3ccccc3CC2C)c1 (stereo not given)		inconclusive: 18.4 µM [falling, single point]
O=C(Nc1ccc(S(=O)(=O)NCc2ccccc2)cc1)Nc1ccc2c(c1)OCO2	inconclusive: 0.123%	
Cc1nn(C)cc1/C=C1\CCC/C(=C\c2cn(C)nc2C)C1=O		inconclusive: 14.6 µM [falling, partial curve, poor fit]
CCOc1ccc(C2=CC(c3cc(Br)ccc3F)n3ncnc3N2)cc1Cl (stereo not given)		inconclusive: 35.5 µM [falling, single point]
ClCC1NCC(c2ccccc2Cl)c2c1[nH]c1ccccc21 (stereo not given)	inconclusive: 4.7%	
Cc1cccc(Cn2c(=O)oc3ccc(C)cc32)c1	inconclusive: 3.66%	
COc1ccccc1-c1cc(C(=O)Nc2ccccc2SC)no1	inconclusive: 235%	
COc1ccc(C(=O)OCC(=O)NC2CC2)cc1F	inactive: 4.53%	
C=CCn1c2ccccc2c2nnc(SCc3ccc4nonc4c3)nc21	inconclusive: 16.8%	
COc1ccccc1C(=O)N/N=C(\C)CC(=O)Nc1ccc(Nc2ccccc2)cc1		inconclusive: 15.8 µM [falling, partial curve, poor fit]
